The source of these data is PMC7862700.

Only a part is listed here, and it is no random draw. For some of these results: At the low end of the ranking the order means little. Some of the results follow. For some of these results: Construct or isoform of the protein are uncertain.

What all share (experiment): DAPPL (digital affinity profiling via proximity ligation, sequencing)
What all share (details): 10 mM Tris-HCl pH 7.5, 50 mM NaCl, 1 mM DTT, 4% glycerol, room temperature, 30 min; GST-TFs on glutathione beads, 16-mer random dsDNA library, 0.1% …; high values mean tight binding; double strand, one strand shown; scale: fold enrichment (6-mer frequency, TF over GST control)

For one assay, the target named is T1, ELK4 (UniProt P28324-2).
T1 sequence: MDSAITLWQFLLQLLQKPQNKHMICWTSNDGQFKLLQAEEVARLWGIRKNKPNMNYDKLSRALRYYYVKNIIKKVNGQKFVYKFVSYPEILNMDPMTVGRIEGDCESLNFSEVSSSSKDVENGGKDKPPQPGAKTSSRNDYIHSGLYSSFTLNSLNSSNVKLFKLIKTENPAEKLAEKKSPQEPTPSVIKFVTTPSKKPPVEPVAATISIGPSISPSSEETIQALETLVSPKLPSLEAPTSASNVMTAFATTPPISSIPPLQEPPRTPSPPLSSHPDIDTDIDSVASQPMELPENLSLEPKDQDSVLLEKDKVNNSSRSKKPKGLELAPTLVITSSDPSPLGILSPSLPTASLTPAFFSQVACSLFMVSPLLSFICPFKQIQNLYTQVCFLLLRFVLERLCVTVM

For another assay, the target named is T2, ETV4 (UniProt P43268).
T2 sequence: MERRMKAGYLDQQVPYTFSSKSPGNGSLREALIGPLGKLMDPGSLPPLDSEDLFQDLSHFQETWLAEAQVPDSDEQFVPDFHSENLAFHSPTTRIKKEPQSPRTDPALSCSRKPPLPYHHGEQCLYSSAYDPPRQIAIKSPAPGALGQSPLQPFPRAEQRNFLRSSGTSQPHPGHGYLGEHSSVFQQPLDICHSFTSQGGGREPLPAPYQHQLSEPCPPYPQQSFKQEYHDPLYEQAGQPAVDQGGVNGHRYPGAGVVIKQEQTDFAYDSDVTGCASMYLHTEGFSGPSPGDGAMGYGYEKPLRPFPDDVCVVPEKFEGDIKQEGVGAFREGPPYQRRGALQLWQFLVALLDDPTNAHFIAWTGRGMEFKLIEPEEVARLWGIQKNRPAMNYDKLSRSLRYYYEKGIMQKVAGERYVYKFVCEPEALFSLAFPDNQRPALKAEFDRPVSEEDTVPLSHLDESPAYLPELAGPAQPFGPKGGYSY

Another assay concerns the target T3, ERG (UniProt P11308).
T3 sequence: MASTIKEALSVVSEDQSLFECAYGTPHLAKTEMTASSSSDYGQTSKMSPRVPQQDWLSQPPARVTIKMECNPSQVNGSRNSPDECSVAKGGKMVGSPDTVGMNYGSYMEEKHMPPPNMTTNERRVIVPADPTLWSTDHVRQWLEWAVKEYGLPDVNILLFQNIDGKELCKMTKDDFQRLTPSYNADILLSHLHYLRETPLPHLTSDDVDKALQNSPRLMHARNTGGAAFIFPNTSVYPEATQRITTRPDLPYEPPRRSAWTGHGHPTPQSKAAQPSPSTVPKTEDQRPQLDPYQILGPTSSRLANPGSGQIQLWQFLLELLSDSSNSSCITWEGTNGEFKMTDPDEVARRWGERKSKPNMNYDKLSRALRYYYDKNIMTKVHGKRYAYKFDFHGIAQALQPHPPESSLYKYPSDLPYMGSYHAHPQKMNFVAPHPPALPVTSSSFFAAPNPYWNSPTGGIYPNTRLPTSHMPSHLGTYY

Take GGATCC: the binding signal came to 1.05 with ELK4 and 1.21 in the assay with ETV4.

In the case of ACTACC, the binding signal in the assay with ELK4 is 1.59; with ETV4, 1.55.

Take AATGCC: the binding signal with ELK4 was 1.16; in the assay with ETV4, 1.08.

With ATAGAA, the binding signal was 1.02 in the assay with ELK4 and 1.07 with ETV4.

GCCTTT: the binding signal with ELK4 worked out at 1.32; with ETV4, 1.49.

As for CTCACT, the binding signal is 1.38 with ELK4 and 1.49 in the assay with ETV4.

As for TTCCCC, the binding signal with ELK4 turned out to be 1.48; with ETV4 it was 1.62.

In the case of TTCCTC, the binding signal in the assay with ELK4 was found to be 2.1; in the assay with ETV4, 2.17.

Regarding TACATT, the results for the binding signal with ELK4 and with ETV4 were 1.09 and 1.27, respectively.

As for CAAATT, the binding signal in the assay with ELK4 worked out at 0.984; in the assay with ETV4 it was 1.14.

Turning to AACAGC, the results for the binding signal with ELK4 and with ETV4 were 1.2 and 1.11, respectively.

Turning to ATGGAA, the binding signal in the assay with ELK4 stood at 1.13; in the assay with ETV4, 1.21.

CATCTG: the binding signal stood at 1.39 with ELK4 and 1.18 with ETV4.

Take ACATTA: the binding signal with ELK4 came to 1.18; in the assay with ETV4, 1.22.

Consider TCGCTC, for which the binding signal was 1.29 with ELK4 and 1.25 in the assay with ETV4.

Consider TAACAA, for which the binding signal with ELK4 came out at 1.15; in the assay with ETV4, 1.21.

For the sequence ATGGCC, the binding signal was determined as 1.48 with ELK4 and 1.46 with ETV4.

Consider TTCATA, for which the binding signal turned out to be 1.2 with ELK4 and 1.12 with ETV4.

Consider TATAAG, for which the results for the binding signal with ELK4 and with ETV4 were 1.08 and 1.11, respectively.

As for TTAATG, the binding signal with ELK4 is 1.21; with ETV4, 1.22.

As for CCAATC, the binding signal with ELK4 came to 1.18; with ETV4, 1.17.

Take CTATAC: the binding signal in the assay with ELK4 came to 1.07; with ETV4, 1.37.

CTCTGT: the binding signal is 1.5 in the assay with ELK4 and 1.57 with ETV4.

Turning to ATGGCT, the binding signal with ELK4 was found to be 1.34; with ETV4 it was 1.41.

For CGACTA, the binding signal with ELK4 amounted to 1.58; with ETV4, 1.39.

As to CCCGCA, the binding signal with ELK4 turned out to be 1.35; in the assay with ETV4, 1.27.

For the sequence TGTAAA, the results for the binding signal with ELK4 and in the assay with ETV4 were 1.1 and 1.18, respectively.

With CACTCT, the binding signal with ELK4 came to 1.58; with ETV4, 1.34.

As for TATTTC, the binding signal in the assay with ELK4 came out at 2.24; with ETV4, 2.15.

TTAAGC: the figures for the binding signal with ELK4 and in the assay with ETV4 were 1.15 and 1.24, respectively.

In the case of GCTTTC, the binding signal worked out at 1.26 with ELK4 and 1.29 in the assay with ETV4.

Regarding ATCATA, the figures for the binding signal with ELK4 and with ETV4 were 1.08 and 1.02, respectively.

With AACACA, the figures for the binding signal with ELK4 and in the assay with ETV4 were 1.42 and 1.26, respectively.

In the case of TTATTG, the binding signal was 1.43 with ELK4 and 1.28 with ETV4.

As to AATCAA, the binding signal was found to be 1.18 with ELK4 and 1.14 with ETV4.

Turning to TCTCGA, the binding signal with ELK4 turned out to be 1.46; in the assay with ETV4, 1.38.

With TATTCA, the binding signal with ELK4 was determined as 1.33; with ETV4, 1.29.

CTGCGA: the values for the binding signal with ELK4 and in the assay with ETV4 were 1.08 and 1.3, respectively.

Take CGAGCT: the binding signal is 0.977 with ELK4 and 1.09 with ETV4.

Take TTAAAC: the values for the binding signal with ERG, with ELK4 and with ETV4 were 1.25, 1.26 and 1.19, respectively.

Turning to ACTTAC, the binding signal in the assay with ELK4 came out at 1.12; with ETV4 it was 1.2.

TCTAGT: the binding signal in the assay with ELK4 and in the assay with ETV4 was 1.17 throughout.

As for ATGATT, the binding signal in the assay with ELK4 came to 1.21; in the assay with ETV4, 1.24.

With TGCGAT, the results for the binding signal in the assay with ELK4 and with ETV4 were 1.2 and 1.24, respectively.

As for ATCTTT, the results for the binding signal in the assay with ERG, in the assay with ELK4 and with ETV4 were 1.21, 1.29 and 1.17, respectively.

On to ATAACT, for which the results for the binding signal in the assay with ELK4 and in the assay with ETV4 were 1.22 and 1.26, respectively.

On to GTCCTA, for which the results for the binding signal with ELK4 and with ETV4 were 1.13 and 1.17, respectively.

On to TCGCAC, for which the binding signal with ERG turned out to be 1.07; with ELK4 it was 1.08; with ETV4, 1.03.

In the case of ATTGCG, the binding signal turned out to be 1.14 in the assay with ELK4 and 1.26 with ETV4.

GTTAAC: the binding signal with ELK4 amounted to 1.25; with ETV4, 1.17.

Regarding AAACAT, the binding signal in the assay with ELK4 amounted to 1.49; with ETV4, 1.46.

As to GAAGCT, the figures for the binding signal with ERG, in the assay with ELK4 and with ETV4 were 1.64, 1.69 and 1.54, respectively.

Consider ATTCTG, for which the binding signal with ELK4 was 1.38; with ETV4, 1.28.

As to CTCCCG, the results for the binding signal with ELK4 and with ETV4 were 1.46 and 1.52, respectively.

Take GCTCTG: the binding signal with ELK4 stood at 0.979; with ETV4 it was 1.21.

As for ACATAT, the binding signal in the assay with ELK4 was found to be 1.22; with ETV4, 1.34.

For the sequence GACCTA, the binding signal was 1.14 with ELK4 and 1.13 with ETV4.
